Data from publication PMC11831473 (Advanced Science, 2024).
No constants are given. Whether binding was seen depends on the method and setting. In cells and extracts the contact can be indirect. Some binding calls cover weakened binding; strength is not graded here.

Amino acid sequences for entries named in this document (tags omitted).
UniProt P05412: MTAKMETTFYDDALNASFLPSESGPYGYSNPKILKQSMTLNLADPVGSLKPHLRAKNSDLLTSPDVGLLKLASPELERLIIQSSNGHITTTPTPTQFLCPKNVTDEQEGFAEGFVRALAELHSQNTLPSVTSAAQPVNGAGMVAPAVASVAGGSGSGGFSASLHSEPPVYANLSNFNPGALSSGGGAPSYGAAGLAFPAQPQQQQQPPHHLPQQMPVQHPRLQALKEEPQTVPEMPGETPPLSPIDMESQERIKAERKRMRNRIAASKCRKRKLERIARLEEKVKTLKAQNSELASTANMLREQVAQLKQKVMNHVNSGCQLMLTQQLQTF
UniProt P40763: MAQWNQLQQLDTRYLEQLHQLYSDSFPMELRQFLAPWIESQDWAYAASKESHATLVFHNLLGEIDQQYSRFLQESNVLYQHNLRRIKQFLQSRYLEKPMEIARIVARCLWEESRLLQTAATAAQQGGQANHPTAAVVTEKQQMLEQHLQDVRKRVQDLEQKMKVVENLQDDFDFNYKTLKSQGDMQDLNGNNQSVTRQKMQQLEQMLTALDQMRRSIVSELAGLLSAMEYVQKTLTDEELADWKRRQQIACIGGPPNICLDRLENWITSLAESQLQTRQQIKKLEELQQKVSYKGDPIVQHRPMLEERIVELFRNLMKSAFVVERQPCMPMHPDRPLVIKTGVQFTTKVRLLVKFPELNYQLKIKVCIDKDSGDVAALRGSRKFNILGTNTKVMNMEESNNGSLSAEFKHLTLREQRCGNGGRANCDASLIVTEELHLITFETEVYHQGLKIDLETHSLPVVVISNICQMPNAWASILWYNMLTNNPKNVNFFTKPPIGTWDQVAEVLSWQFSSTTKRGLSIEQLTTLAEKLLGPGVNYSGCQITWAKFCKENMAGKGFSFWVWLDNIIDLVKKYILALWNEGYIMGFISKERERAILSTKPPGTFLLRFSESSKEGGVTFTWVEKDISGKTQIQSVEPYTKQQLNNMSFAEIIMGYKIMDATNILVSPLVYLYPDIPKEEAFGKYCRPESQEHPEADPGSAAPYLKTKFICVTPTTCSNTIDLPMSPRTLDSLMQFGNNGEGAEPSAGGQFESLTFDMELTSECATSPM
UniProt Q04206: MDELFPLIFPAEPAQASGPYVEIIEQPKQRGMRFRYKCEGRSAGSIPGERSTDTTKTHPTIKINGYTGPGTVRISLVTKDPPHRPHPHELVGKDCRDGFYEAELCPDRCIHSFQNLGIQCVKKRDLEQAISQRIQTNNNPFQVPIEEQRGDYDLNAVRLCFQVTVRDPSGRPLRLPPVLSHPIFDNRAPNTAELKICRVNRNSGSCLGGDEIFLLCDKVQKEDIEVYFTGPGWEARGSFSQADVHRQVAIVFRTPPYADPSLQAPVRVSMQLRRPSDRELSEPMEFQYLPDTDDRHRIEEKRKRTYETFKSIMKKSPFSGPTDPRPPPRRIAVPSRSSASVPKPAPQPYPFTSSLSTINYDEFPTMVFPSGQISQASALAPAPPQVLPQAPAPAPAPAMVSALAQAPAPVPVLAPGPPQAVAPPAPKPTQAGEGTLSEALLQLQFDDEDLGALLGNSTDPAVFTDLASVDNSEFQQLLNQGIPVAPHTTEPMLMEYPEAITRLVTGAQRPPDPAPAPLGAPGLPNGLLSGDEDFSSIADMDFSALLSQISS

Key:
[1] = target: T1, TRAF4, exogenously expressed in HEK‐293T cells (UniProt Q9BUZ4); experiment: co-IP; exogenous TRAF4 and c‐Jun expressed in HEK‐293T cells; immunoblot (Figure 5C)
T1 sequence: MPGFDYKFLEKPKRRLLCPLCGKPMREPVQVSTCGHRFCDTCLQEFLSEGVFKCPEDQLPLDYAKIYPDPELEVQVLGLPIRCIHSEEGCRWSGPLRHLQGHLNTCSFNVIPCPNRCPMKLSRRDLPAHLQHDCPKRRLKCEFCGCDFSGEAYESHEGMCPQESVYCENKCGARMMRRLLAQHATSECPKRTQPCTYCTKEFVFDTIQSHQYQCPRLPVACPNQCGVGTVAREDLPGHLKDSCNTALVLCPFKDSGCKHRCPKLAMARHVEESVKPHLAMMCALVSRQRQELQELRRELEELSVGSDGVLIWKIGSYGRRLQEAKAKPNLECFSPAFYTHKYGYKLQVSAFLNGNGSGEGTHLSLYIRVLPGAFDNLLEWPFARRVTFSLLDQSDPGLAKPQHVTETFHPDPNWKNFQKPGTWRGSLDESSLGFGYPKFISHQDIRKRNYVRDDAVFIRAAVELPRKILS

[2] = target: T2, Tumor necrosis factor receptor‐associated factor 4 (TRAF4), endogenous (human (endogenous in HCT116, MDA‐MB‐231, U‐87 MG, RKO, LM2‐4175, LN229)) (UniProt Q9BUZ4); experiment: co-IP; lysates of HCT116, MDA‐MB‐231 and U‐87 MG cells; TRAF4 tested against transcription factors; antibodies on Protein A/G magnetic beads, 4 °C overnight; immunoblot (Figure 5B)
T2 sequence: T1 sequence

| Substance | binding [1] | binding [2] |
| --- | --- | --- |
| c‐Jun, exogenously expressed in HEK‐293T cells (from UniProt P05412 1-331) | binds |  |
| STAT3 (from UniProt P40763 1-770) |  | no binding |
| c‐Jun, endogenous (from UniProt P05412 1-331) |  | binds |
| NF‐κB (from UniProt Q04206 1-551) |  | no binding |
